Measured values taken from patent publication EP4685482A1, “METHOD FOR SELECTING DRUGS FOR THE TREATMENT OF MENTAL HEALTH PATHOLOGIES” (Neomente Corp, priority 2023, dated 2024).
At least one structure is not confirmed: it was looked up by name or label, or the drawing left a doubt.

Test system: Patients diagnosed with unipolar depression
Assay: Clinical follow-up of patients with the SIGH-D-17 scale (treatment as usual vs guided by the Clinical Decision Support System), case examples
Format: in vivo
Conditions: Example 4: person, depressive episode
Procedure: Patients diagnosed with unipolar depression were recruited and divided into two groups. The first group Treatment as Usual (TAU) received treatment according to psychiatry clinical guidelines. The second group received Clinical Decision Support System Guided (CCDSg) additional support from the method for selecting neuropsychiatric drugs. Follow-up was conducted using the SIGH-D-17 scale in both groups at the beginning of treatment and 8 and 12 weeks. […]
Based on the algorithm results, it was decided to discontinue the previous pharmacological regimen and initiate a new one consisting of desvenlafaxine and aripiprazole. A significant response was observed within 8 weeks of treatment initiation (69% reduction in SIGH-D-17 scale).
While awaiting the results of the application of this method, pharmacological treatment with sertraline was initiated. […] These findings are consistent with the genetic variations found (alteration of the CYP2C19 enzyme). Subsequently, and with the results of the application of this method, pharmacological treatment with vortioxetine was implemented, achieving remission at 12 weeks.
(53% reduction in SIGH-D-17 scale).

Question: For `CN(C)CCCC1(c2ccc(F)cc2)OCc2cc(C#N)ccc21` (stereo not shown) [Citalopram], which “response (pharmacological history)” value is on record?
Answer: lack of response
